PubChem BioAssay AID1259254 – NCATS – 2017
The deposit covers about 59,000 reagents; shown is a part drawn at random. In the full data, about 1,550 (2.6%) got an active call. 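G2 share is only a proxy for re-replication; each gene was hit by three separate siRNAs, and active genes were retested.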 The raw values are shown without normalisation. Reagents against one gene are numbered here. Reagent sequences are not shown. Not given: the amount of reagent.

- Purpose: 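Gene knock-downs that lead to re-replication, shown by excess G2 DNA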 (primary screen)
- Cells: human HCT116 colorectal cancer cells
- Reagent: single siRNA against human genes
- Timing: 3 days
- Measurement: 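Imaged Hoechst DNA stain sorts each cell into a cycle phase by DNA amount; per plate, G2 fraction set to 0% for non-targeting and 100% for GMNN siRNA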
- Scale: G2 robust z-score and G2 cells, % of GMNN control: higher = more G2 cells, more excess DNA replication; raw share of cells in G2: higher = larger share of cells with G2 DNA content
- Active means: 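Active siRNAs have a G2 robust z of 5 or more median absolute deviations over the median, which in these data means about 38% or higher of GMNN control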

Target gene	siRNA no.	G2 robust z-score	G2 cells, % of GMNN control	raw share of cells in G2 (%)	activity call
SERINC3	1	-0.348	0.516	5.92	inactive
SERINC3	2	-0.927	-3.55	2.69	inactive
SERINC3	3	0.868	9.07	10.1	inactive
CAPN5	1	1.29	12.1	9.77	inactive
CAPN5	2	2.59	21.2	12.4	inactive
CAPN5	3	-0.409	0.087	3.94	inactive
TSNAX	1	-0.291	0.923	5.99	inactive
TSNAX	2	0.883	9.18	7.5	inactive
TSNAX	3	-0.789	-2.58	3.3	inactive
CFAP44	1	-0.626	-1.44	3.97	inactive
CFAP44	2	0.565	6.94	7.01	inactive
CFAP44	3	-0.641	-1.55	2.64	inactive
ZBTB8A	1	3.06	24.5	14	inactive
ZBTB8A	2	-0.477	-0.39	3.03	inactive
ZBTB8A	3	-0.546	-0.872	2.52	inactive
CZIB	1	-0.829	-2.86	2.58	inactive
CZIB	2	8.53	63	30.8	active
CZIB	3	-0.585	-1.15	2.81	inactive
SHC1	1	1.25	11.7	8.57	inactive
SHC1	2	2.3	19.1	10.3	inactive
SHC1	3	0.587	7.1	8.07	inactive
PALS2	1	-0.552	-0.918	5.3	inactive
PALS2	2	-0.0558	2.57	6.13	inactive
PALS2	3	0.483	6.37	5.72	inactive
TP63	1	0.371	5.58	5.38	inactive
TP63	2	-0.664	-1.7	5.23	inactive
TP63	3	0.61	7.26	6.38	inactive
OR5T2	1	-0.184	1.67	4.18	inactive
OR5T2	2	1.64	14.5	8.1	inactive
OR5T2	3	-0.0355	2.72	4.06	inactive
PEX13	1	-0.836	-2.91	3.85	inactive
PEX13	2	-1.67	-8.76	1.66	inactive
PEX13	3	-0.8	-2.66	2.7	inactive
SIRT3	1	-0.21	1.49	6.97	inactive
SIRT3	2	-0.808	-2.72	3.25	inactive
SIRT3	3	3.53	27.8	13.4	inactive
DELE1	1	1.15	11.1	10.3	inactive
DELE1	2	3.18	25.3	14.5	inactive
DELE1	3	0.0861	3.57	4.71	inactive
ZNF713	1	0.711	7.97	5.83	inactive
ZNF713	2	-0.829	-2.86	2.17	inactive
ZNF713	3	0.734	8.13	6.38	inactive
DEFB124	1	-0.964	-3.81	1.98	inactive
DEFB124	2	-0.602	-1.27	3.12	inactive
DEFB124	3	-0.202	1.55	3.66	inactive
RPP25L	1	0.562	6.92	6.78	inactive
RPP25L	2	2.65	21.6	9.95	inactive
RPP25L	3	-0.0393	2.69	3.55	inactive
OR4P4	1	0.697	7.87	7.71	inactive
OR4P4	2	0.553	6.86	7.3	inactive
OR4P4	3	-0.366	0.39	2.48	inactive
TMEM65	1	-0.147	1.93	4.29	inactive
TMEM65	2	-0.85	-3.02	1.95	inactive
TMEM65	3	1.57	14	7.19	inactive
COQ9	1	-1.47	-7.36	1.8	inactive
COQ9	2	-0.85	-3.01	3.08	inactive
COQ9	3	0.398	5.77	8.96	inactive
DPH7	1	3.48	27.4	15.7	inactive
DPH7	2	-0.379	0.302	3.1	inactive
DPH7	3	0.902	9.31	5.88	inactive
LMO7DN	1	0.181	4.24	5.76	inactive
LMO7DN	2	-0.471	-0.344	3.1	inactive
LMO7DN	3	-0.433	-0.0764	3.15	inactive
SLC35G2	1	-0.78	-2.52	3.4	inactive
SLC35G2	2	-0.534	-0.79	3.96	inactive
SLC35G2	3	-0.885	-3.26	1.49	inactive
NTNG2	1	0.806	8.64	5.84	inactive
NTNG2	2	0.98	9.86	10.4	inactive
NTNG2	3	1.45	13.2	7.77	inactive

Reformatted: entries from further up.
Target gene | siRNA no. | G2 robust z-score | G2 cells, % of GMNN control | raw share of cells in G2 (%) | activity call
COQ9 | 1 | -1.47 | -7.36 | 1.8 | inactive
COQ9 | 2 | -0.85 | -3.01 | 3.08 | inactive
COQ9 | 3 | 0.398 | 5.77 | 8.96 | inactive
DPH7 | 1 | 3.48 | 27.4 | 15.7 | inactive
DPH7 | 2 | -0.379 | 0.302 | 3.1 | inactive
DPH7 | 3 | 0.902 | 9.31 | 5.88 | inactive
LMO7DN | 1 | 0.181 | 4.24 | 5.76 | inactive
LMO7DN | 2 | -0.471 | -0.344 | 3.1 | inactive
LMO7DN | 3 | -0.433 | -0.0764 | 3.15 | inactive
SLC35G2 | 1 | -0.78 | -2.52 | 3.4 | inactive
